# Data as given in the supplement of paper PMC10849652.
# Chains of the proteins cited; added tags and fusions are not shown. Lines headed by an entry give the natural chain unless they say otherwise; changes in a name come on top.
# UniProt Q8N1B4: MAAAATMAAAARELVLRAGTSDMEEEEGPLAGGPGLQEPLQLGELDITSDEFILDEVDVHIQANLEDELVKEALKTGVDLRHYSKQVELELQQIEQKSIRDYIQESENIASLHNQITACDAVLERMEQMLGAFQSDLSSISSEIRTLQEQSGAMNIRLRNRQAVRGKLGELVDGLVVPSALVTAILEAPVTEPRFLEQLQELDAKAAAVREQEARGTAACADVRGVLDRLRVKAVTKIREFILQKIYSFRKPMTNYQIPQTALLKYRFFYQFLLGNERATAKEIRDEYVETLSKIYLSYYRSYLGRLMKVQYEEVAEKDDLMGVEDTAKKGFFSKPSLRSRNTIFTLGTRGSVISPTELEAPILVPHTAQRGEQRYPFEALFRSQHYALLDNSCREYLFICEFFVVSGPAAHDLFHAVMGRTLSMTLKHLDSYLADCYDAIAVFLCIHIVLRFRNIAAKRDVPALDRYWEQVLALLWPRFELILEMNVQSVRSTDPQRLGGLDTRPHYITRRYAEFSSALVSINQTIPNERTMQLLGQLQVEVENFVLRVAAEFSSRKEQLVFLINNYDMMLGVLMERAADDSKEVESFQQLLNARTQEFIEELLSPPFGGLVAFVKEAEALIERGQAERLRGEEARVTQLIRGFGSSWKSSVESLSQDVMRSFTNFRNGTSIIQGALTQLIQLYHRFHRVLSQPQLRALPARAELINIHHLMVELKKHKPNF
# UniProt Q96S55: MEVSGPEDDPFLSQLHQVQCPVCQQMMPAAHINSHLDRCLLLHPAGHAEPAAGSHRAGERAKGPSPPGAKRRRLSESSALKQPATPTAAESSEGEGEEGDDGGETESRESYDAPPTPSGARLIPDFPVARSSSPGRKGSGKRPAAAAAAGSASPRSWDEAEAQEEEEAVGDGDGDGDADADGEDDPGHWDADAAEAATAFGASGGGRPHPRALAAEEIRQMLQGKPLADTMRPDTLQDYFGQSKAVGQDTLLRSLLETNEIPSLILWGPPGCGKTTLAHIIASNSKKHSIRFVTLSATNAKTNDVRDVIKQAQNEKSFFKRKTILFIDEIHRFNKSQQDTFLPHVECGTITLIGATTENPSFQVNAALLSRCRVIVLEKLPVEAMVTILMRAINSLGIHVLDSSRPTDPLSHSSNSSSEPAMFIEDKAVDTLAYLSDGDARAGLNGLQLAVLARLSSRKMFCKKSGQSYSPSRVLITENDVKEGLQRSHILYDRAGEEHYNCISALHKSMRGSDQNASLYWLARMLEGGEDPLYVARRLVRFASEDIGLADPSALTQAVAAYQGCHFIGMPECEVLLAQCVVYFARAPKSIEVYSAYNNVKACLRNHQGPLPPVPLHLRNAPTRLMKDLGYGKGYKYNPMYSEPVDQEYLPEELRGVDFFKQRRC
# UniProt Q9Y4P8: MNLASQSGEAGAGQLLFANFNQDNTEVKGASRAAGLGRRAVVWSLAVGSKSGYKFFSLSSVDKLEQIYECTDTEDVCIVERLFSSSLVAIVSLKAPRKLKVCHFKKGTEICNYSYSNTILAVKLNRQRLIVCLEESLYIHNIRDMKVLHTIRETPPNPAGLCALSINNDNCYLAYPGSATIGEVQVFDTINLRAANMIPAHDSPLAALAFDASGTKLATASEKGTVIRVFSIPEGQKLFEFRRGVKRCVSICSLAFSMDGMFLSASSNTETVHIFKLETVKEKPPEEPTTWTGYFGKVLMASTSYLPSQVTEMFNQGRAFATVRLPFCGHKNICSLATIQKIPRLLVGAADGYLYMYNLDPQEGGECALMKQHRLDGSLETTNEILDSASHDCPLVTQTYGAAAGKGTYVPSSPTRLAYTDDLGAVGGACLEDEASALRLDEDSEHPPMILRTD
# UniProt Q96AJ9: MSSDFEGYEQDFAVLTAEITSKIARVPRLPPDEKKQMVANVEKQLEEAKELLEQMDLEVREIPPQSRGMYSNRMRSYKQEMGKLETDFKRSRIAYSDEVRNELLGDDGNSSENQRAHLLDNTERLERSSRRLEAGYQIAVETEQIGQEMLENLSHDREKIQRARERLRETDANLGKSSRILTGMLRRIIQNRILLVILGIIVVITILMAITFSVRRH
# UniProt Q8TAF3: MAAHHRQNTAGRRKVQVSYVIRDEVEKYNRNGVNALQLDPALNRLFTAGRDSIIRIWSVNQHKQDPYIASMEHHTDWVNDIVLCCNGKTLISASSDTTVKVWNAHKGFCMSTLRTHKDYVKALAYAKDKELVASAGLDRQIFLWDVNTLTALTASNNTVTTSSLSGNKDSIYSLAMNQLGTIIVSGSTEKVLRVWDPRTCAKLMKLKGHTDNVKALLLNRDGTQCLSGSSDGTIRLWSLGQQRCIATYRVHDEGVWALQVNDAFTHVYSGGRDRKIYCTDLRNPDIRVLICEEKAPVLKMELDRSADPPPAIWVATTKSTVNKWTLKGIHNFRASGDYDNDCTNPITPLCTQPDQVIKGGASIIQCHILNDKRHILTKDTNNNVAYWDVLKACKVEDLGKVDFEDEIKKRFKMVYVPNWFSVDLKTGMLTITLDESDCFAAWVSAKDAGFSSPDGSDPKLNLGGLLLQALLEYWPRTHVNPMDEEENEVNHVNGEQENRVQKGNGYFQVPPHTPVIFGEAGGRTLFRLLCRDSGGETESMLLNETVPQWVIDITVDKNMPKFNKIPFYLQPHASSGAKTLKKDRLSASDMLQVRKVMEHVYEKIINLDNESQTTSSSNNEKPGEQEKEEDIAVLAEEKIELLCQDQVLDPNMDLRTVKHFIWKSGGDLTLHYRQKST
# UniProt O00258: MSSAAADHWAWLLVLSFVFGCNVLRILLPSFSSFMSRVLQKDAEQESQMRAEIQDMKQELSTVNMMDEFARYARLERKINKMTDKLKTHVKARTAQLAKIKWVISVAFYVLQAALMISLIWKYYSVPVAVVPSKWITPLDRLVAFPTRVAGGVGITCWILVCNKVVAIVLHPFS
# UniProt O00534: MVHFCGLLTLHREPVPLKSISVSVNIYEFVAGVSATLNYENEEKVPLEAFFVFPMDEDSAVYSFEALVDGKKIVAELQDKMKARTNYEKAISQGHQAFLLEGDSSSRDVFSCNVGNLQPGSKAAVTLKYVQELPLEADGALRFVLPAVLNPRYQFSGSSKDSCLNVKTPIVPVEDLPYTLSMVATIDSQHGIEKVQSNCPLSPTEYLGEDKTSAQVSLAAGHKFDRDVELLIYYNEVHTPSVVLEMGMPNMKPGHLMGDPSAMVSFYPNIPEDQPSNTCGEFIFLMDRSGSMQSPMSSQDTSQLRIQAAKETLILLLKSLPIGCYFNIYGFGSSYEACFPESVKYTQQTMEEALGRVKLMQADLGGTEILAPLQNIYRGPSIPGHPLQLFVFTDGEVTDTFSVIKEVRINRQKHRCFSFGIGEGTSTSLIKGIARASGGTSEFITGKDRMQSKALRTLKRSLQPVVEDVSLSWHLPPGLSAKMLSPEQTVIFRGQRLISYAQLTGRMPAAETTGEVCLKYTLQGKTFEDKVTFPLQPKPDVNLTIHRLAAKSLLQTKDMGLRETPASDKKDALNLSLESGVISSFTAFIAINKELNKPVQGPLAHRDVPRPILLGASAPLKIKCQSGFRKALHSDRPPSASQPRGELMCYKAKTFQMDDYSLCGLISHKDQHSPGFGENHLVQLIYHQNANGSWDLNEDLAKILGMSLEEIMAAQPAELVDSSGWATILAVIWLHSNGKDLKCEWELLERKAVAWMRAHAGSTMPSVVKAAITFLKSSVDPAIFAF
# UniProt Q96FK6: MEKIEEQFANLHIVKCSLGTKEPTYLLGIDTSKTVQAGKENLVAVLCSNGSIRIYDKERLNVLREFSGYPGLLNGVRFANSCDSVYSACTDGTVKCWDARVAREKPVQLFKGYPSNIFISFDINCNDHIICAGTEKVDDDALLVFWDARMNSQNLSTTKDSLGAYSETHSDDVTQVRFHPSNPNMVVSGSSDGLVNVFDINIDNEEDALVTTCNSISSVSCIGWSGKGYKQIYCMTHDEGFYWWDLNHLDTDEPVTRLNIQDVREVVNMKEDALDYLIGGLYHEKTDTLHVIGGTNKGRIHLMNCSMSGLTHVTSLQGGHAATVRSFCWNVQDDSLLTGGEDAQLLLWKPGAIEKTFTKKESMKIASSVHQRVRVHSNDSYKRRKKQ
# UniProt P23381: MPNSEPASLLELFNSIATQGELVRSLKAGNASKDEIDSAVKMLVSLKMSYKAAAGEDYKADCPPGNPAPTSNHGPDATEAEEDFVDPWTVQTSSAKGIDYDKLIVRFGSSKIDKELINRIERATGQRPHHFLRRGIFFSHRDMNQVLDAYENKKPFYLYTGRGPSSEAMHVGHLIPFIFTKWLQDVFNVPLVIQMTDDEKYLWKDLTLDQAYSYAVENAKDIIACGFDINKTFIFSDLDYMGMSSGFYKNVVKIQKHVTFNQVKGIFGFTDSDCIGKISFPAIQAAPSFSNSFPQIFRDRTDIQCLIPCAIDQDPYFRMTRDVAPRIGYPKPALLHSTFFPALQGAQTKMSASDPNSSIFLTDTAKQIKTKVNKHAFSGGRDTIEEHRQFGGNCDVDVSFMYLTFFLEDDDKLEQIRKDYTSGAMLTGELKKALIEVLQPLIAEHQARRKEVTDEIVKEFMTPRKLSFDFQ
# UniProt O75554: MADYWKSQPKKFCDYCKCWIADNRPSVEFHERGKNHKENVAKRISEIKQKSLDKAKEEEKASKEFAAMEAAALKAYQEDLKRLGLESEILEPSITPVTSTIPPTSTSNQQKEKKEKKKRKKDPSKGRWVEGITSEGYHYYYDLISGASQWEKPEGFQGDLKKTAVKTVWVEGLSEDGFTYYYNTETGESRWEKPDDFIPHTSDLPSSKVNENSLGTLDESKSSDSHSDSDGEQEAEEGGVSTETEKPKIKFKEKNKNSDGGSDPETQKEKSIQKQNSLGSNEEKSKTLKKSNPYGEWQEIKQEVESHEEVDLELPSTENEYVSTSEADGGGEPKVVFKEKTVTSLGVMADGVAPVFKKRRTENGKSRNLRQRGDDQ
# UniProt Q9Y2W2: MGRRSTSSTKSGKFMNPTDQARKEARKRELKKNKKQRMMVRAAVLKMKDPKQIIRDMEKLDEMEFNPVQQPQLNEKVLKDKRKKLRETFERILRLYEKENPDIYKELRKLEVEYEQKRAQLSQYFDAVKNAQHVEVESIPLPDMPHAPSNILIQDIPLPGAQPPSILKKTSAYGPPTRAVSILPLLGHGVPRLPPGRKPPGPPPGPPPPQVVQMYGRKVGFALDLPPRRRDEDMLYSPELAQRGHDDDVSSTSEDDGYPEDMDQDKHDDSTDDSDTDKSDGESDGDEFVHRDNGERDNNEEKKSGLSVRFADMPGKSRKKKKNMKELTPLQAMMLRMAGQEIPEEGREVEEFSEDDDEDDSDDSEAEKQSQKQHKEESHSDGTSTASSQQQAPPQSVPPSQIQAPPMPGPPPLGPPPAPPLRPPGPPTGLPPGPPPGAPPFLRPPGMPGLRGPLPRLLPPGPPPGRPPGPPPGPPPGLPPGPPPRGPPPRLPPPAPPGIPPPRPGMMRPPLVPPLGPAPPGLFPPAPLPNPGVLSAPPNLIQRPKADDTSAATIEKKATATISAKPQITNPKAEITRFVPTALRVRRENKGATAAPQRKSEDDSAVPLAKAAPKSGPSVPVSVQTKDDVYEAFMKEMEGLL
# UniProt Q9BQA1, whole entry, looked up: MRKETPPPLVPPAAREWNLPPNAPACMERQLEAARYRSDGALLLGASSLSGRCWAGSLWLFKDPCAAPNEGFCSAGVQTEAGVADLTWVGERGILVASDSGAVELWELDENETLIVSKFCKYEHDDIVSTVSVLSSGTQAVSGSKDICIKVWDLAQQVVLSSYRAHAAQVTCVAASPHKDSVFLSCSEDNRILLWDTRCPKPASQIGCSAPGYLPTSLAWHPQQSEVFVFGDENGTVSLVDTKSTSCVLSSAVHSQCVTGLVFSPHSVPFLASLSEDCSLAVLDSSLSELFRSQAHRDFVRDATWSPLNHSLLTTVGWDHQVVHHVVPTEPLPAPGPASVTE
# UniProt Q4G0F5, whole entry, looked up: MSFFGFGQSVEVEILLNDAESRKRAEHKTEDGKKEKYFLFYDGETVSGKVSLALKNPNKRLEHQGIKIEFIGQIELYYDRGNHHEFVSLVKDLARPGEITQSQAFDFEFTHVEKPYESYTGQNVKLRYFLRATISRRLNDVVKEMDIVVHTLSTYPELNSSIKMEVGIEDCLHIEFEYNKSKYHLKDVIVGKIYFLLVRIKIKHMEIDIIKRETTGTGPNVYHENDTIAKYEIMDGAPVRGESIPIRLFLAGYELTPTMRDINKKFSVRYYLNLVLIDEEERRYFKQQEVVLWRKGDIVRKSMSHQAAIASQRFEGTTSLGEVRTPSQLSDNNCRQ
# The list shows a part of the results.
# Assays:
# Experiment in all cases: log2 fold change, soluble protein after heating vs DMSO (PISA); higher = thermal stabilisation; K562 cells, 10 uM, 30 min; active = over 0.2 and 3.5 SD of the protein, either way, in both replicates (recomputed)
# [1] = compound: NC(=O)Nc1cc(-c2cccc(F)c2)sc1C(=O)N[C@H]1CCCNC1
# How it was run: (§1)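 Aliquots of K562 cells (2×10^6 cells/mL) treated with 10 μM compound for 30 min were heated for 3 min over 48°C-58°C. After pooling and extraction in PBS with 0.5% NP-40 at 4°C, soluble protein from a 21,000xg, 90 min spin was quantified by TMTpro 16plex LC-MS/MS with channel sums equalised. Thermal stability is expressed against control samples, from duplicates, as a log2 fold change.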
# [2] = compound: NC(=O)c1cnc(N[C@@H]2CCCC[C@@H]2N)nc1Nc1cccc(-n2nccn2)c1
# How it was run: as §1
# [3] = compound: NC1(c2ccc(-c3nc4ccn5c(=O)[nH]nc5c4cc3-c3ccccc3)cc2)CCC1
# How it was run: as §1
# [4] = compound: NCC(=O)Nc1ccc(-n2nc(C(F)(F)F)cc2-c2ccc3c(ccc4ccccc43)c2)cc1
# How it was run: as §1
# entinostat = compound: Nc1ccccc1NC(=O)c1ccc(CNC(=O)OCc2cccnc2)cc1 [entinostat]
# How it was run: as §1
# vorinostat = compound: O=C(CCCCCCC(=O)Nc1ccccc1)NO [vorinostat]
# How it was run: as §1
# citarinostat = compound: O=C(CCCCCCNC(=O)c1cnc(N(c2ccccc2)c2ccccc2Cl)nc1)NO [citarinostat]
# How it was run: as §1
# silmitasertib = compound: O=C(O)c1ccc2c(c1)nc(Nc1cccc(Cl)c1)c1ccncc12 [silmitasertib]
# How it was run: as §1
# [5] = compound: O=C1NC(=O)C(c2cnc3ccccn23)=C1c1cn2c3c(cc(F)cc13)CN(C(=O)N1CCCCC1)CC2
# How it was run: as §1
# [6] = compound: c1cc(OCCN2CCCCC2)cc(-c2n[nH]c3ccc(-c4nnc[nH]4)cc23)c1
# How it was run: as §1
Target,log2 fold change [1],log2 fold change [2],log2 fold change [3],log2 fold change [4],log2 fold change (entinostat),log2 fold change (vorinostat),log2 fold change (citarinostat),log2 fold change (silmitasertib),log2 fold change [5],log2 fold change [6]
VPS52 (UniProt Q8N1B4),inactive: 0.065,inactive: -0.005,inactive: -0.132,inactive: -0.039,inactive: 0.037,inactive: 0.086,inactive: 0.015,inactive: 0.08,inactive: 0.02,inactive: 0.016
WRNIP1 (UniProt Q96S55),inactive: -0.031,inactive: -0.04,inactive: -0.304,inactive: -0.08,inactive: 0.147,inactive: 0.15,inactive: 0.207,inactive: -0.04,inactive: -0.134,inactive: -0.148
WIPI2 (UniProt Q9Y4P8),inactive: -0.016,inactive: -0.126,inactive: -0.081,inactive: -0.026,inactive: 0.026,inactive: -0.052,inactive: -0.014,inactive: 0.076,inactive: 0.006,inactive: -0.066
WBP2 (UniProt Q969T9),inactive: 0.01,inactive: 0.073,inactive: -0.032,inactive: 0.012,inactive: -0.009,inactive: -0.035,inactive: 0.036,inactive: -0.026,inactive: 0.034,inactive: -0.063
VPS13D (UniProt Q5THJ4),inactive: -0.027,inactive: -0.11,inactive: -0.178,inactive: -0.016,inactive: -0.026,inactive: 0.068,inactive: -0.029,inactive: 0.015,inactive: 0.26,inactive: -0.012
WRAP53 (UniProt Q9BUR4),inactive: 0.017,inactive: 0.01,inactive: -0.039,inactive: -0.04,inactive: -0.05,inactive: 0.104,inactive: 0.073,inactive: -0.032,inactive: 0.077,inactive: -0.084
WDR36 (UniProt Q8NI36),inactive: -0.036,inactive: 0.093,inactive: 0.131,inactive: 0.034,inactive: -0.058,inactive: 0.001,inactive: 0.013,inactive: 0.158,inactive: 0.157,inactive: -0.093
VTI1A (UniProt Q96AJ9),inactive: -0.07,inactive: 0.014,inactive: -0.125,inactive: -0.014,inactive: -0.009,inactive: 0.028,inactive: -0.016,inactive: 0.051,inactive: -0.01,inactive: -0.039
WDR48 (UniProt Q8TAF3),inactive: -0.004,inactive: -0.017,inactive: 0.009,inactive: 0.01,inactive: -0.006,inactive: -0.024,inactive: 0.023,inactive: 0.01,inactive: -0.021,inactive: -0.036
WRB (UniProt O00258),inactive: 0.003,inactive: 0.019,inactive: -0.018,inactive: 0.006,inactive: -0.011,inactive: -0.035,inactive: 0.034,inactive: 0.028,inactive: 0.062,inactive: -0.042
VTA1 (UniProt Q9NP79),inactive: -0.029,inactive: 0.018,inactive: -0.185,inactive: -0.045,inactive: 0.036,inactive: 0.036,inactive: 0.054,inactive: 0.023,inactive: -0.076,inactive: 0.009
VWA5A (UniProt O00534),inactive: -0.022,inactive: -0.016,inactive: -0.038,inactive: -0.084,inactive: 0.088,inactive: 0.065,inactive: -0.089,inactive: -0.009,inactive: 0.014,inactive: 0.169
WDR89 (UniProt Q96FK6),inactive: 0.04,inactive: 0.032,inactive: -0.005,inactive: 0.032,inactive: 0.002,inactive: 0.024,inactive: -0.01,inactive: -0.033,inactive: -0.028,inactive: -0.094
VPS36 (UniProt Q86VN1),inactive: -0.008,inactive: -0.018,inactive: -0.068,inactive: -0.056,inactive: -0.015,inactive: 0.008,inactive: 0.039,inactive: 0.004,inactive: 0.041,inactive: -0.054
WARS (UniProt P23381),inactive: 0.073,inactive: 0.014,inactive: 0.097,inactive: 0.058,inactive: -0.025,inactive: -0.024,inactive: -0.014,inactive: -0.048,inactive: -0.012,inactive: 0.029
WDR62 isoform 4 (UniProt O43379),inactive: -0.07,inactive: -0.099,inactive: -0.052,inactive: -0.038,inactive: 0,inactive: 0.05,inactive: 0.054,inactive: 0.073,inactive: 0.01,inactive: -0.07
WAPL isoform 3 (UniProt Q7Z5K2),inactive: -0.009,inactive: -0.033,active: -0.423,inactive: -0.066,inactive: 0.01,inactive: 0.082,inactive: 0.198,inactive: 0.067,inactive: -0.148,inactive: 0.078
WBP4 (UniProt O75554),active: 0.28,inactive: 0.079,inactive: 0.006,inactive: 0.111,inactive: 0.058,inactive: 0.098,inactive: 0.055,inactive: -0.026,inactive: 0,inactive: -0.007
VRK2 (UniProt Q86Y07),inactive: 0.023,inactive: 0.04,inactive: -0.111,inactive: -0.025,inactive: 0.032,inactive: 0.02,inactive: 0.008,inactive: 0,inactive: 0.06,inactive: 0.001
VPS29 isoform 2 (UniProt Q9UBQ0),inactive: -0.016,inactive: 0,inactive: -0.05,inactive: -0.131,inactive: 0.021,inactive: -0.011,inactive: 0.026,inactive: -0.032,inactive: -0.042,inactive: -0.046
VPS13A (UniProt Q96RL7),inactive: 0.002,inactive: -0.025,inactive: -0.043,inactive: -0.009,inactive: -0.031,inactive: 0.044,inactive: 0.004,inactive: 0.004,inactive: 0.029,inactive: -0.007
WDR4 (UniProt P57081),inactive: -0.094,inactive: 0.021,inactive: -0.089,inactive: -0.003,inactive: -0.04,inactive: -0.009,inactive: 0.046,inactive: -0.038,inactive: -0.161,inactive: -0.011
WBP11 (UniProt Q9Y2W2),inactive: -0.012,inactive: -0.02,inactive: 0.046,inactive: -0.007,inactive: -0.047,inactive: 0,inactive: 0.003,inactive: -0.029,inactive: 0.005,inactive: -0.019
WIPF3 (UniProt A6NGB9),inactive: 0.001,inactive: -0.052,inactive: -0.118,inactive: 0.155,inactive: -0.049,inactive: 0,inactive: -0.029,inactive: -0.032,inactive: 0.018,inactive: 0.046
VPS4A (UniProt Q9UN37),inactive: -0.042,inactive: -0.003,inactive: -0.155,inactive: -0.014,inactive: 0.036,inactive: 0.131,inactive: 0.02,inactive: 0.049,inactive: -0.007,inactive: -0.039
VDAC2 (UniProt P45880),inactive: 0.001,inactive: -0.031,inactive: -0.017,inactive: -0.025,inactive: -0.004,inactive: -0.027,inactive: 0.03,inactive: -0.03,inactive: -0.033,inactive: -0.03
WDR77 (UniProt Q9BQA1),inactive: -0.033,inactive: -0.019,inactive: -0.041,inactive: -0.011,inactive: -0.016,inactive: 0.015,inactive: 0.034,inactive: -0.052,inactive: 0.001,inactive: 0.005
VPS26B (UniProt Q4G0F5),inactive: -0.037,inactive: -0.077,inactive: -0.106,inactive: -0.038,inactive: -0.004,inactive: 0.018,inactive: 0.019,inactive: 0,inactive: 0.007,inactive: -0.037
VPS26A (UniProt O75436),inactive: 0.002,inactive: -0.154,inactive: -0.127,inactive: -0.075,inactive: 0.015,inactive: 0.041,inactive: 0.07,inactive: 0,inactive: -0.018,inactive: -0.028
VWDE (UniProt Q8N2E2),inactive: -0.017,inactive: 0.039,inactive: 0.007,inactive: 0.06,inactive: -0.018,inactive: 0.012,inactive: 0.04,inactive: -0.001,inactive: -0.078,inactive: -0.082

# Full records from above. Values in the order: log2 fold change [1] | log2 fold change [2] | log2 fold change [3] | log2 fold change [4] | log2 fold change (entinostat) | log2 fold change (vorinostat) | log2 fold change (citarinostat) | log2 fold change (silmitasertib) | log2 fold change [5] | log2 fold change [6]
# WRNIP1 (UniProt Q96S55) in the list: inactive: -0.031 | inactive: -0.04 | inactive: -0.304 | inactive: -0.08 | inactive: 0.147 | inactive: 0.15 | inactive: 0.207 | inactive: -0.04 | inactive: -0.134 | inactive: -0.148
# WDR89 (UniProt Q96FK6) in the list: inactive: 0.04 | inactive: 0.032 | inactive: -0.005 | inactive: 0.032 | inactive: 0.002 | inactive: 0.024 | inactive: -0.01 | inactive: -0.033 | inactive: -0.028 | inactive: -0.094
